Here are results for one sequence from paper PMC11401227, “The structure of DNA methyltransferase DNMT3C reveals an activity-tuning mechanism for DNA methylation” (The Journal of Biological Chemistry, 2024).

The data set has as its system DNMT3C MTase domain WT (EMSA complex) + mDNMT3L C-terminal domain. Kind of data set: EMSA. Conditions: 1.0 uM DNA, 0-2 uM protein; EMSA: 50 mM Tris-HCl pH 8.5, 36% glycerol, 8% glucose, 2 mM DTT, 0.1 mg/ml BSA, 100 mM NaCl, 0.08% Tween 20, 30 min on ice; 8% PAGE, 0.5x TBE pH 8.3, 4 C; recombinant protein; protein details: His6-SUMO removed by ULP1.

Construct, isoform or probe ends are uncertain for at least one entry.

Regarding “GACGACGACGACGACGACGACGACGACGACGACGAC (double strand) [(GAC)12 DNA duplex]”, the binding result was “binds”.
